Reference: publication PMC11633478

Key:
[1] = molecular target: T1, human sterol regulatory element binding protein 1c (Flag-SREBP-1c) (human) (UniProt P36956); assay: co-IP; HEK 293T cells co-transfected with Flag-SREBP-1c and Myc-GK plasmids, 48 h; cell lysates incubated with antibodies against Myc or Flag overnight at 4 °C, protein A/G magnetic beads 2 h at 4 °C, washed with TBST; Western blot against Myc or Flag
T1 sequence: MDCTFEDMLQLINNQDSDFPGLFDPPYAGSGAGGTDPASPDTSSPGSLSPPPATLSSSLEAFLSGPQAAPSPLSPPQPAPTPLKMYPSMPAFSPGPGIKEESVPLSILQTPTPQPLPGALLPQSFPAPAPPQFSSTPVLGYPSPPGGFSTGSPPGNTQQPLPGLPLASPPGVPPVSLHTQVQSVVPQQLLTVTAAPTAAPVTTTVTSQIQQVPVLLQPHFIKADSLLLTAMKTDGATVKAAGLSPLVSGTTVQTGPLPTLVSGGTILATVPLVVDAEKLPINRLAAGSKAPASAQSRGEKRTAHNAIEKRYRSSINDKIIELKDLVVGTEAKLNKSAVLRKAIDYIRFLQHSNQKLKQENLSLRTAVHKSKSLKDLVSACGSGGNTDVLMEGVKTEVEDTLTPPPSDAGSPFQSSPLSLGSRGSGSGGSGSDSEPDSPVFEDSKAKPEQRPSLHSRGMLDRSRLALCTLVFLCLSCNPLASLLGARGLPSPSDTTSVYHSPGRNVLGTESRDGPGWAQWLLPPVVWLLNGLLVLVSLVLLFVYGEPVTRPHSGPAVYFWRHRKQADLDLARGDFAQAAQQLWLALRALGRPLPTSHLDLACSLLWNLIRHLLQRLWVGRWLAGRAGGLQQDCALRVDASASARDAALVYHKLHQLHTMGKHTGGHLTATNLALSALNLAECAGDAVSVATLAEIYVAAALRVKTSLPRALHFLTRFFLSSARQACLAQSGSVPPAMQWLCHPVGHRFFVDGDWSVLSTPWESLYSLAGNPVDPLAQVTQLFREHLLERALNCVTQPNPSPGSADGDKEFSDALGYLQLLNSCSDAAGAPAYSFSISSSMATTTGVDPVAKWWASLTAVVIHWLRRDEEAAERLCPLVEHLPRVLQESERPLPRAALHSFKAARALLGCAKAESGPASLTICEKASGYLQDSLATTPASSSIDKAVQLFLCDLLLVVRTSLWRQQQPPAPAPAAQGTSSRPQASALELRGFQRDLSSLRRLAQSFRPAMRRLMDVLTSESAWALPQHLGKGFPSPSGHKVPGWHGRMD

[2] = molecular target: T1, human sterol regulatory element binding protein 1c (Flag-SREBP-1c) (human); assay: co-IP; as a1, but on the cytoplasm of co-transfected HEK 293T cells (Nuclear and Cytoplasmic Protein Extraction Kit)
[3] = molecular target: T1, human sterol regulatory element binding protein 1c (Flag-SREBP-1c) (human); assay: co-IP; as a1, but on the nuclei of co-transfected HEK 293T cells (Nuclear and Cytoplasmic Protein Extraction Kit)
[4] = molecular target: T2, mouse sterol regulatory element binding protein 1c (Flag-Srebp-1c) (mouse) (UniProt Q9WTN3); assay: co-IP; HEK 293T cells co-transfected with Flag-SREBP-1c and Myc-GK plasmids, 48 h; cell lysates incubated with antibodies against Myc or Flag overnight at 4 °C, protein A/G magnetic beads 2 h at 4 °C, washed with TBST; Western blot against Myc or Flag
T2 sequence: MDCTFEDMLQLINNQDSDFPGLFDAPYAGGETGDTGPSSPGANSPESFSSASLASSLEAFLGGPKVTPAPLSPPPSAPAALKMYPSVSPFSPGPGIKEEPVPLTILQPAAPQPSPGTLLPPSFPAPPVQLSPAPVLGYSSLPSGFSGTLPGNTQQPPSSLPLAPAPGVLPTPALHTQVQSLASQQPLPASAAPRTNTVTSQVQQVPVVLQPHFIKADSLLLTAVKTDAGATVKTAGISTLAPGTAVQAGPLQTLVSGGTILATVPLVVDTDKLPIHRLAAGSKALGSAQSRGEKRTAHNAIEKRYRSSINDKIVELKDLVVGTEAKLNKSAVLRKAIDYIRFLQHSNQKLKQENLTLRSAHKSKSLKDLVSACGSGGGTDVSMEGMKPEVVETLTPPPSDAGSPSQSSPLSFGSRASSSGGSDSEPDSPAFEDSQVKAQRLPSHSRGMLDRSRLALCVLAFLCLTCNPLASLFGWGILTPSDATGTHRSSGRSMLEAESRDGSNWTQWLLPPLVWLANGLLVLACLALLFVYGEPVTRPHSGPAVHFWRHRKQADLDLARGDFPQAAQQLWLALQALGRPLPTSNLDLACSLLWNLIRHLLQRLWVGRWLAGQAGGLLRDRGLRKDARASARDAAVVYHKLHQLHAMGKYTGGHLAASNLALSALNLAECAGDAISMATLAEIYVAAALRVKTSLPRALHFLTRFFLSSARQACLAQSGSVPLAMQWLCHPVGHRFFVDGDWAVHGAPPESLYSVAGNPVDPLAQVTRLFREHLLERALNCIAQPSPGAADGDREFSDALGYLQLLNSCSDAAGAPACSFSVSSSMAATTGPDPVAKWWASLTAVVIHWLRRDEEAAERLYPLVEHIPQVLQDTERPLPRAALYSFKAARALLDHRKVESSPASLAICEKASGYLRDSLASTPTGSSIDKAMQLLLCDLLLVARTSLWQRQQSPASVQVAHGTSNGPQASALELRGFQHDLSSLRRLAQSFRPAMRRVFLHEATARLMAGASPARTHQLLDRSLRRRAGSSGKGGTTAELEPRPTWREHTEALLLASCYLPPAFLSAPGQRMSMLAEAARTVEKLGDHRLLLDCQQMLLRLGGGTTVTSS

Row | binding [1] | Substance | further results
1 | binds | human GK(N288D) (enzyme) | 
2 | binds | human GK(C256R) (enzyme) | 
3 | binds | full-length human glycerol kinase (Myc-GK) (enzyme) | binding [2]: binds; binding [3]: binds
4 | binds | human GK(D198G) (enzyme) | 
5 |  | mouse glycerol kinase (Myc-Gk) (from UniProt Q64516-1) (enzyme) | binding [4]: binds
6 | binds | C-terminal fragment of human GK (amino acids 272-524, GK-C) (domain or fragment) | 
7 | binds | N-terminal fragment of human GK (amino acids 1-271, GK-N) (domain or fragment) | 

These are yes or no findings as the source states them, for the method shown. Binding seen in cells or lysates may run through a third protein. Binding calls can cover weak binding; strength is not graded here. Sequences can lack the tags named with a protein.
